Measurements reported in PubChem BioAssay AID743121 (NCATS, 2013)

- Assay: 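Partners whose loss is lethal together with topoisomerase I blockade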 (primary screen)
- System: MDA-MB-231 cells, a human breast cancer line
- Reagent: single siRNA against human genes, 20 nM siRNA (0.8 pmol per well)
- Timing: 120 h (drug added 48 h after transfection, read 72 h later)
- Treatment: camptothecin 20 nM (about EC30) for 72 h; vehicle 0.1% DMSO in parallel plates
- Measurement: 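Cell viability by ATP luminescence (CellTiter-Glo) as % of non-targeting siRNA wells, and the log2 ratio of viability without drug over viability with camptothecin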
- Reading the numbers: log2 vehicle/camptothecin viability: higher = stronger sensitisation to camptothecin; viability with camptothecin and viability without drug: higher = more viable cells
- Rule for the call: 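Active genes have an RSA gene-level p-value below 0.001, computed from the ratios of their separate siRNAs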
The whole screen tested about 26,000 reagents; below is a part drawn at random. In the full data, 167 (0.63%) got an active call. 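Calls are per gene from RSA p-values that are not deposited; an individual active-marked siRNA can sensitise only weakly.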 The numbers tell different reagents against one gene apart.

Gene	siRNA no.	log2 vehicle/camptothecin viability	viability with camptothecin (% of control)	viability without drug (% of control)	call
CTSA (cathepsin A)	1	-0.471	87.1	62.9	inactive
CTSA (cathepsin A)	2	0.145	72.8	80.5	inactive
CTSA (cathepsin A)	3	-0.282	25.2	20.7	inactive
RRM2 (ribonucleotide reductase regulatory subunit M2)	1	1.91	6.49	24.3	inactive
RRM2 (ribonucleotide reductase regulatory subunit M2)	2	0.0915	33.7	35.9	inactive
RRM2 (ribonucleotide reductase regulatory subunit M2)	3	-0.327	11.4	9.06	inactive
RRM2 (ribonucleotide reductase regulatory subunit M2)	4	0.0375	20.7	21.3	inactive
FGF3 (fibroblast growth factor 3)	1	0.295	88.2	108	inactive
FGF3 (fibroblast growth factor 3)	2	0.141	7.04	7.76	inactive
FGF3 (fibroblast growth factor 3)	3	0.103	43.7	47	inactive
XCR1 (X-C motif chemokine receptor 1)	1	-0.132	81.2	74.1	inactive
XCR1 (X-C motif chemokine receptor 1)	2	-0.289	89.4	73.2	inactive
XCR1 (X-C motif chemokine receptor 1)	3	0.00232	84.8	85	inactive
XCR1 (X-C motif chemokine receptor 1)	4	-0.178	105	92.8	inactive
IL6ST (interleukin 6 cytokine family signal transducer)	1	-0.0146	85.7	84.8	inactive
IL6ST (interleukin 6 cytokine family signal transducer)	2	-0.213	78.2	67.4	inactive
IL6ST (interleukin 6 cytokine family signal transducer)	3	-0.12	122	112	inactive
IL6ST (interleukin 6 cytokine family signal transducer)	4	0.0818	66.6	70.5	inactive
ASB17 (ankyrin repeat and SOCS box containing 17)	1	-0.27	126	105	inactive
ASB17 (ankyrin repeat and SOCS box containing 17)	2	-0.143	123	111	inactive
ASB17 (ankyrin repeat and SOCS box containing 17)	3	0.0853	85.1	90.3	inactive
KCNN3 (potassium calcium-activated channel subfamily N member 3)	1	-0.33	79.3	63.1	inactive
KCNN3 (potassium calcium-activated channel subfamily N member 3)	2	0.00992	40	40.2	inactive
KCNN3 (potassium calcium-activated channel subfamily N member 3)	3	-0.0702	87.5	83.4	inactive
AGO1 (argonaute RISC component 1)	1	-0.459	70.3	51.1	inactive
AGO1 (argonaute RISC component 1)	2	-0.148	103	93.1	inactive
AGO1 (argonaute RISC component 1)	3	0.559	29.8	43.9	inactive
AGO1 (argonaute RISC component 1)	4	-0.0532	90.6	87.3	inactive
USP48 (ubiquitin specific peptidase 48)	1	0.541	33.4	48.5	inactive
USP48 (ubiquitin specific peptidase 48)	2	-0.516	27.5	19.3	inactive
USP48 (ubiquitin specific peptidase 48)	3	-0.443	89.6	65.9	inactive
USP48 (ubiquitin specific peptidase 48)	4	0.281	60.8	73.8	inactive
USP48 (ubiquitin specific peptidase 48)	5	-0.119	32.8	30.2	inactive
USP48 (ubiquitin specific peptidase 48)	6	-0.561	42.3	28.7	inactive
USP48 (ubiquitin specific peptidase 48)	7	-0.238	104	88.2	inactive
USP48 (ubiquitin specific peptidase 48)	8	-0.306	74.7	60.4	inactive
PXDN (peroxidasin)	1	-0.328	85.7	68.3	inactive
PXDN (peroxidasin)	2	-0.238	90.2	76.5	inactive
PXDN (peroxidasin)	3	-0.266	97.3	81	inactive
PXDN (peroxidasin)	4	-0.673	63.7	40	inactive
TNS2 (tensin 2)	1	-0.369	96.8	75	inactive
TNS2 (tensin 2)	2	-0.0947	63.4	59.4	inactive
TNS2 (tensin 2)	3	0.639	32.3	50.3	inactive
TNS2 (tensin 2)	4	-0.051	43	41.5	inactive
REELD1 (reeler domain containing 1)	1	-0.0441	98.9	96	inactive
REELD1 (reeler domain containing 1)	2	-0.044	88.9	86.2	inactive
REELD1 (reeler domain containing 1)	3	0.055	76.5	79.4	inactive
REELD1 (reeler domain containing 1)	4	-0.218	68.1	58.5	inactive
GRK5 (G protein-coupled receptor kinase 5)	1	0.113	70.2	76	inactive
GRK5 (G protein-coupled receptor kinase 5)	2	0.13	76.7	84	inactive
GRK5 (G protein-coupled receptor kinase 5)	3	0.557	33.4	49.1	inactive
GRK5 (G protein-coupled receptor kinase 5)	4	0.448	19.3	26.3	inactive
ENDOG (endonuclease G)	1	-0.124	62.4	57.3	inactive
ENDOG (endonuclease G)	2	0.484	16.6	23.1	inactive
ENDOG (endonuclease G)	3	-0.434	94	69.6	inactive
ENDOG (endonuclease G)	4	0.828	27.9	49.5	inactive
EPO (erythropoietin)	1	-0.129	96.8	88.5	inactive
EPO (erythropoietin)	2	-0.02	71	70	inactive
EPO (erythropoietin)	3	-0.107	56.9	52.8	inactive
EPO (erythropoietin)	4	0.12	43.2	46.9	inactive
CTSK (cathepsin K)	1	0.37	36.8	47.5	inactive
CTSK (cathepsin K)	2	-0.791	59.9	34.6	inactive
CTSK (cathepsin K)	3	-0.296	76	61.9	inactive
TP63 (tumor protein p63)	1	-0.134	107	97.2	inactive
TP63 (tumor protein p63)	2	-0.0943	90.6	84.9	inactive
TP63 (tumor protein p63)	3	-0.356	109	85.2	inactive
TP63 (tumor protein p63)	4	-0.298	69.1	56.2	inactive
OR5I1 (olfactory receptor family 5 subfamily I member 1)	1	-0.345	78.6	61.9	inactive
OR5I1 (olfactory receptor family 5 subfamily I member 1)	2	0.0857	103	110	inactive
OR5I1 (olfactory receptor family 5 subfamily I member 1)	3	-0.264	97.8	81.4	inactive
OR5I1 (olfactory receptor family 5 subfamily I member 1)	4	-0.146	102	92	inactive
POLE (DNA polymerase epsilon, catalytic subunit)	1	-0.675	62	38.8	inactive
POLE (DNA polymerase epsilon, catalytic subunit)	2	-0.679	35.4	22.1	inactive
POLE (DNA polymerase epsilon, catalytic subunit)	3	-0.579	42.9	28.7	inactive
POLE (DNA polymerase epsilon, catalytic subunit)	4	-1.12	42.4	19.5	inactive
GPI (glucose-6-phosphate isomerase)	1	-0.245	60.7	51.2	inactive
GPI (glucose-6-phosphate isomerase)	2	-0.394	59.6	45.4	inactive
GPI (glucose-6-phosphate isomerase)	3	-0.61	114	75	inactive
GPI (glucose-6-phosphate isomerase)	4	-0.338	67.8	53.6	inactive
PRPH2 (peripherin 2)	1	-0.147	69	62.3	inactive
PRPH2 (peripherin 2)	2	0.264	25.4	30.5	inactive
PRPH2 (peripherin 2)	3	-0.0678	120	114	inactive
PRPH2 (peripherin 2)	4	-0.128	82.1	75.1	inactive
ANP32E (acidic nuclear phosphoprotein 32 family member E)	1	-0.417	77.9	58.4	inactive
ANP32E (acidic nuclear phosphoprotein 32 family member E)	2	-0.0514	92.9	89.7	inactive
ANP32E (acidic nuclear phosphoprotein 32 family member E)	3	-0.302	68.8	55.8	inactive
ANP32E (acidic nuclear phosphoprotein 32 family member E)	4	0.0233	91.7	93.2	inactive

11 of these entries, reformatted:
Gene,siRNA no.,log2 vehicle/camptothecin viability,viability with camptothecin (% of control),viability without drug (% of control),call
TNS2 (tensin 2),3,0.639,32.3,50.3,inactive
TNS2 (tensin 2),4,-0.051,43,41.5,inactive
REELD1 (reeler domain containing 1),1,-0.0441,98.9,96,inactive
REELD1 (reeler domain containing 1),2,-0.044,88.9,86.2,inactive
REELD1 (reeler domain containing 1),3,0.055,76.5,79.4,inactive
REELD1 (reeler domain containing 1),4,-0.218,68.1,58.5,inactive
GRK5 (G protein-coupled receptor kinase 5),1,0.113,70.2,76,inactive
GRK5 (G protein-coupled receptor kinase 5),2,0.13,76.7,84,inactive
GRK5 (G protein-coupled receptor kinase 5),3,0.557,33.4,49.1,inactive
GRK5 (G protein-coupled receptor kinase 5),4,0.448,19.3,26.3,inactive
ENDOG (endonuclease G),1,-0.124,62.4,57.3,inactive
